By UniProt entry, the sequences of proteins in these tests, tags left out.
UniProt P28223, whole entry: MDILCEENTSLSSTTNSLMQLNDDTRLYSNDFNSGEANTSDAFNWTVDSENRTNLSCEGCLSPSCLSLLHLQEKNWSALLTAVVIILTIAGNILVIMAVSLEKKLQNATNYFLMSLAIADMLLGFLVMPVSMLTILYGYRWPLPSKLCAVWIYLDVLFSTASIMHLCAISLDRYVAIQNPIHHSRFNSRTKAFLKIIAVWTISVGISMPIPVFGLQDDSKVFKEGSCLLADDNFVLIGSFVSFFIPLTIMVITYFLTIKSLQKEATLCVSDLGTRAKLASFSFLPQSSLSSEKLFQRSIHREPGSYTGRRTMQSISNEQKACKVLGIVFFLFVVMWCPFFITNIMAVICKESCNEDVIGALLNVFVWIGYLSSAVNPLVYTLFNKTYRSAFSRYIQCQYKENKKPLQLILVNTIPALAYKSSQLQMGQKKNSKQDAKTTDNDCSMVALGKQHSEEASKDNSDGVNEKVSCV

According to article doi:10.1101/2021.11.14.468520v1, “Exploring the kinetic selectivity of antipsychotics for dopamine D2 and 5-HT2A receptors: implications for the prevalence of EPS and receptor occupancy” (biorxiv, 2021):

Target: T1, human 5-HT2A receptor (5-HT2AR) (Homo sapiens, UniProt P28223)
T1 construct: gene HTR2A; SNAP-tagged (SNAP-Lumi4-Tb labelled) receptor transiently expressed in CHO-K1 cells; membranes; plasmid from CisBio
Experiment: TR-FRET equilibrium competition binding
Text: TR-FRET equilibrium competition binding on human 5-HT2A receptor (5-HT2AR)

SMILES: COc1cc(C(C)=O)ccc1OCCCN1CCC(c2noc3cc(F)ccc23)CC1 [Iloperidone]
- Ki: 0.479 nM
